pIC50: −log10 of the molar value. The structures given here were assigned with low confidence; some may be wrong.
Assays:
[1] = target: Human β2 adrenoceptor (Homo sapiens, UniProt P07550); test: β2 adrenoceptor radioligand binding assay; conditions: read-out: B2 Range 8.5-9.5; binding affinity class, human β2 adrenoceptor membranes, 125-I Cyanopindolol; tested form: TFA
Description: β2 Adrenoceptor Radioligand Binding Assay
Human β2 adrenoceptor membranes (7.5 ug/well) from Perkin Elmer were incubated with 0.3 nM 125-I Cyanopindolol with or without test compounds, or a saturating concentration of s-propranolol (2 μM) for the determination of non-specific binding. The assay was carried out in 96-well polypropylene plates in a volume of 200 ul. The assay buffer used was 25 mM HEPES, 0.5% BSA (w/v), 1 mM EDTA, 0.02% ascorbic acid (v/v), (pH 7.4). The final assay concentration of DMSO was 0.5% (v/v). The plates were sealed and incubated for 1 h at room temperature on an orbital shaker (slow speed). Membranes were harvested onto 96-well unifilter GF/C filter plates pre-treated with 0.5% polyethyleneimine (v/v), using a filter manifold, washed six times with 200 ul of wash buffer containing 10 mM HEPES and 500 mM NaCl. The plates were dried before addition of 50 μl of microscint-0, sealed then read in a Trilux Microbeta scintillation counter. IC50 values are determined from competition curves using a non-linear curve fitting program. Ki values were calculated from IC50 values by the Cheng and Prusoff equation.

Amino acid sequences for entries named in this document (tags omitted).
UniProt P07550, whole entry: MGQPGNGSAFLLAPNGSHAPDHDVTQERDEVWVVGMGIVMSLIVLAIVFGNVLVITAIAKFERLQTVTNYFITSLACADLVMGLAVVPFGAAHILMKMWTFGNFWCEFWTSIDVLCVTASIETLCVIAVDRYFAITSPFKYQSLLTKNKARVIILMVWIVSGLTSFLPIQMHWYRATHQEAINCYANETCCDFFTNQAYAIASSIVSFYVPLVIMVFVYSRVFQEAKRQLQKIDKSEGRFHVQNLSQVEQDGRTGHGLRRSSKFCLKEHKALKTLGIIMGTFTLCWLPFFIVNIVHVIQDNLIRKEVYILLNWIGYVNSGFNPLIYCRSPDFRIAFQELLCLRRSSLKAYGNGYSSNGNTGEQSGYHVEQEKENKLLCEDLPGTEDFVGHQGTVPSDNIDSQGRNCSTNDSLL
UniProt P20309, whole entry: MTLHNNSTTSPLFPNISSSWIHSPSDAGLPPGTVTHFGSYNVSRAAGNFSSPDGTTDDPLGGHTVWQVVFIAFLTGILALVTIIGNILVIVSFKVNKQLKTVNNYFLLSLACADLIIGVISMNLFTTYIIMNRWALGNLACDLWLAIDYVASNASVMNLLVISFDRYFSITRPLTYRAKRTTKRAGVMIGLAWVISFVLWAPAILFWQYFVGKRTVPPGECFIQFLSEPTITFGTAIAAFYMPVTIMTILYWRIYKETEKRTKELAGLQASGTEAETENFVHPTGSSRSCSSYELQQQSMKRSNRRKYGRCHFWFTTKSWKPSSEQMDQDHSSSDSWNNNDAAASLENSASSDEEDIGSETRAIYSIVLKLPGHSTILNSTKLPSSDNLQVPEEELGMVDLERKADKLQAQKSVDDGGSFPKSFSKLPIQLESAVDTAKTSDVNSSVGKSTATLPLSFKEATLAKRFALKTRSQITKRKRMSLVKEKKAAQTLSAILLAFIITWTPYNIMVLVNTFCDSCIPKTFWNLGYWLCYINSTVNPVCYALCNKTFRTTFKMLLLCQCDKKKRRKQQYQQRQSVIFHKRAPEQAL

[2] = target: Human M3 receptor (Homo sapiens, UniProt P20309); test: M3 receptor radioligand binding assay; conditions: read-out: M3 Range; binding affinity class, human M3 receptor membranes, [N-methyl-3H] Scopolamine Methyl Chloride; tested form: TFA

O=C(N[C@H]1C[C@H](NC(=O)c2cncc(-c3cccc([C@](O)(C(=O)OCC4CCN(Cc5ccccc5)CC4)c4ccccc4)c3)n2)C1)c1ccc(CNC[C@H](O)c2ccc(O)c3[nH]c(=O)ccc23)cc1
pIC50 [1]: 8.52 to 9.52
pIC50 [2]: < 8.52
